Reference: the supplement of paper PMC7661543
The effect of the compound repeats well; differences between the knockouts mostly do not.

Test system: BT-20
Assay: relative cell number vs DMSO control (72 h) (% of DMSO); higher = less growth inhibition (more cells)
Procedure: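 QMAP-Seq: a pool of 5 breast cancer cell lines (ZR-75-1, SKBR3, HCC-38, MDA-MB-231, BT-20), each carrying 12 doxycycline-inducible Cas9 sgRNA perturbations (11 knockouts plus non-targeting sgNT), was treated with compounds for 72 h at four 10-fold doses (10 nM-10 uM or 1 nM-1 uM range). Barcodes were amplified and sequenced, and cell number was interpolated from 293T spike-in standard curves. The result is expressed as % of the median of DMSO wells. Two biological replicates.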

COc1cccc2cc(-c3nc([C@H]4CC[C@H](C(=O)O)CC4)n4ncnc(N)c34)[nH]c12 [OSI027]
Details	relative cell number
sgRNA knockout: sgATF3, 10 nM	102
sgRNA knockout: sgATF3, 100 nM	107
sgRNA knockout: sgATF3, 1000 nM	76.6
sgRNA knockout: sgATF3, 10000 nM	45.77
sgRNA knockout: sgATF4, 10 nM	94.1
sgRNA knockout: sgATF4, 100 nM	130
sgRNA knockout: sgATF4, 1000 nM	78.3
sgRNA knockout: sgATF4, 10000 nM	55.7
sgRNA knockout: sgATF6, 10 nM	92.6
sgRNA knockout: sgATF6, 100 nM	117
sgRNA knockout: sgATF6, 1000 nM	77.1
sgRNA knockout: sgATF6, 10000 nM	52.27
sgRNA knockout: sgATG7, 10 nM	98.5
sgRNA knockout: sgATG7, 100 nM	109
sgRNA knockout: sgATG7, 1000 nM	82
sgRNA knockout: sgATG7, 10000 nM	56.2
sgRNA knockout: sgERN1, 10 nM	93.1
sgRNA knockout: sgERN1, 100 nM	103
sgRNA knockout: sgERN1, 1000 nM	86.7
sgRNA knockout: sgERN1, 10000 nM	43.5
sgRNA knockout: sgHSF1, 10 nM	98.1
sgRNA knockout: sgHSF1, 100 nM	108
sgRNA knockout: sgHSF1, 1000 nM	76.3
sgRNA knockout: sgHSF1, 10000 nM	49.4
sgRNA knockout: sgHSF2, 10 nM	96.3
sgRNA knockout: sgHSF2, 100 nM	116
sgRNA knockout: sgHSF2, 1000 nM	86.4
sgRNA knockout: sgHSF2, 10000 nM	50.1
sgRNA knockout: sgKEAP1, 10 nM	101
sgRNA knockout: sgKEAP1, 100 nM	108
sgRNA knockout: sgKEAP1, 1000 nM	85.2
sgRNA knockout: sgKEAP1, 10000 nM	53
sgRNA knockout: sgNFE2L2, 10 nM	101
sgRNA knockout: sgNFE2L2, 100 nM	123
sgRNA knockout: sgNFE2L2, 1000 nM	94.2
sgRNA knockout: sgNFE2L2, 10000 nM	55.9
sgRNA knockout: sgSLC35F2, 10 nM	90.85
sgRNA knockout: sgSLC35F2, 100 nM	104
sgRNA knockout: sgSLC35F2, 1000 nM	87.3
sgRNA knockout: sgSLC35F2, 10000 nM	46.4
sgRNA knockout: sgXBP1, 10 nM	104
sgRNA knockout: sgXBP1, 100 nM	114
sgRNA knockout: sgXBP1, 1000 nM	76.4
sgRNA knockout: sgXBP1, 10000 nM	47

C=CCc1cccc(/C=N/NC(=O)CN2CCN(Cc3ccccc3)CC2)c1O [PAC1]
Details	relative cell number
sgRNA knockout: sgATF3, 10 nM	93.4
sgRNA knockout: sgATF3, 100 nM	93.6
sgRNA knockout: sgATF3, 1000 nM	80.5
sgRNA knockout: sgATF3, 10000 nM	43.3
sgRNA knockout: sgATF4, 10 nM	97.4
sgRNA knockout: sgATF4, 100 nM	91.6
sgRNA knockout: sgATF4, 1000 nM	92.7
sgRNA knockout: sgATF4, 10000 nM	44.3
sgRNA knockout: sgATF6, 10 nM	94.3
sgRNA knockout: sgATF6, 100 nM	74.1
sgRNA knockout: sgATF6, 1000 nM	93.75
sgRNA knockout: sgATF6, 10000 nM	40.95
sgRNA knockout: sgATG7, 10 nM	88.8
sgRNA knockout: sgATG7, 100 nM	87.6
sgRNA knockout: sgATG7, 1000 nM	80.8
sgRNA knockout: sgATG7, 10000 nM	41.7
sgRNA knockout: sgERN1, 10 nM	96.062
sgRNA knockout: sgERN1, 100 nM	89.3
sgRNA knockout: sgERN1, 1000 nM	105
sgRNA knockout: sgERN1, 10000 nM	43
sgRNA knockout: sgHSF1, 10 nM	102
sgRNA knockout: sgHSF1, 100 nM	86.1
sgRNA knockout: sgHSF1, 1000 nM	92.2
sgRNA knockout: sgHSF1, 10000 nM	45.9
sgRNA knockout: sgHSF2, 10 nM	83.6
sgRNA knockout: sgHSF2, 100 nM	96.7
sgRNA knockout: sgHSF2, 1000 nM	75.6
sgRNA knockout: sgHSF2, 10000 nM	39.8
sgRNA knockout: sgKEAP1, 10 nM	97
sgRNA knockout: sgKEAP1, 100 nM	91.6
sgRNA knockout: sgKEAP1, 1000 nM	81.22
sgRNA knockout: sgKEAP1, 10000 nM	35.2
sgRNA knockout: sgNFE2L2, 10 nM	98.9
sgRNA knockout: sgNFE2L2, 100 nM	90.38
sgRNA knockout: sgNFE2L2, 1000 nM	94
sgRNA knockout: sgNFE2L2, 10000 nM	38.7
sgRNA knockout: sgSLC35F2, 10 nM	88.6
sgRNA knockout: sgSLC35F2, 100 nM	80.2
sgRNA knockout: sgSLC35F2, 1000 nM	88.9
sgRNA knockout: sgSLC35F2, 10000 nM	51.7
sgRNA knockout: sgXBP1, 10 nM	99.6
sgRNA knockout: sgXBP1, 100 nM	81.8
sgRNA knockout: sgXBP1, 1000 nM	99.1
sgRNA knockout: sgXBP1, 10000 nM	44.6

CC(=O)O[C@H]1C(=O)[C@@]2(C)[C@H]([C@H](OC(=O)c3ccccc3)[C@]3(O)C[C@H](OC(=O)[C@H](O)[C@@H](NC(=O)c4ccccc4)c4ccccc4)C(C)=C1C3(C)C)[C@]1(OC(C)=O)CO[C@@H]1C[C@@H]2O [Paclitaxel]
Details	relative cell number
sgRNA knockout: sgATF3, 10 nM	57
sgRNA knockout: sgATF3, 100 nM	19.5
sgRNA knockout: sgATF3, 1000 nM	26.2
sgRNA knockout: sgATF3, 10000 nM	28.4
sgRNA knockout: sgATF4, 10 nM	44.6
sgRNA knockout: sgATF4, 100 nM	25.1
sgRNA knockout: sgATF4, 1000 nM	26.8
sgRNA knockout: sgATF4, 10000 nM	36.1
sgRNA knockout: sgATF6, 10 nM	40.7
sgRNA knockout: sgATF6, 100 nM	24.4
sgRNA knockout: sgATF6, 1000 nM	30.9
sgRNA knockout: sgATF6, 10000 nM	37.2
sgRNA knockout: sgATG7, 10 nM	46.6
sgRNA knockout: sgATG7, 100 nM	18.9
sgRNA knockout: sgATG7, 1000 nM	26.6
sgRNA knockout: sgATG7, 10000 nM	37
sgRNA knockout: sgERN1, 10 nM	47.9
sgRNA knockout: sgERN1, 100 nM	23.7
sgRNA knockout: sgERN1, 1000 nM	30.4
sgRNA knockout: sgERN1, 10000 nM	35.8
sgRNA knockout: sgHSF1, 10 nM	51.5
sgRNA knockout: sgHSF1, 100 nM	21.6
sgRNA knockout: sgHSF1, 1000 nM	23.1
sgRNA knockout: sgHSF1, 10000 nM	32.7
sgRNA knockout: sgHSF2, 10 nM	57.7
sgRNA knockout: sgHSF2, 100 nM	20.8
sgRNA knockout: sgHSF2, 1000 nM	28.4
sgRNA knockout: sgHSF2, 10000 nM	35.1
sgRNA knockout: sgKEAP1, 10 nM	52.2
sgRNA knockout: sgKEAP1, 100 nM	20.9
sgRNA knockout: sgKEAP1, 1000 nM	22.1
sgRNA knockout: sgKEAP1, 10000 nM	30.5
sgRNA knockout: sgNFE2L2, 10 nM	55.3
sgRNA knockout: sgNFE2L2, 100 nM	16.5
sgRNA knockout: sgNFE2L2, 1000 nM	29.7
sgRNA knockout: sgNFE2L2, 10000 nM	30.8
sgRNA knockout: sgSLC35F2, 10 nM	55.1
sgRNA knockout: sgSLC35F2, 100 nM	25.8
sgRNA knockout: sgSLC35F2, 1000 nM	21.2
sgRNA knockout: sgSLC35F2, 10000 nM	41.8
sgRNA knockout: sgXBP1, 10 nM	54.7
sgRNA knockout: sgXBP1, 100 nM	21.1
sgRNA knockout: sgXBP1, 1000 nM	26.4
sgRNA knockout: sgXBP1, 10000 nM	33.3

C=C1C(=O)O[C@H]2[C@H]1CC/C(C)=C/CC[C@@]1(C)O[C@@H]21 [Parthenolide]
Details	relative cell number
sgRNA knockout: sgATF3, 10 nM	102
sgRNA knockout: sgATF3, 100 nM	103
sgRNA knockout: sgATF3, 1000 nM	110
sgRNA knockout: sgATF3, 10000 nM	112
sgRNA knockout: sgATF4, 10 nM	107
sgRNA knockout: sgATF4, 100 nM	110
sgRNA knockout: sgATF4, 1000 nM	93.6
sgRNA knockout: sgATF4, 10000 nM	110.4
sgRNA knockout: sgATF6, 10 nM	84.9
sgRNA knockout: sgATF6, 100 nM	116
sgRNA knockout: sgATF6, 1000 nM	106
sgRNA knockout: sgATF6, 10000 nM	102
sgRNA knockout: sgATG7, 10 nM	107
sgRNA knockout: sgATG7, 100 nM	108
sgRNA knockout: sgATG7, 1000 nM	111
sgRNA knockout: sgATG7, 10000 nM	103
sgRNA knockout: sgERN1, 10 nM	98.9
sgRNA knockout: sgERN1, 100 nM	113
sgRNA knockout: sgERN1, 1000 nM	104
sgRNA knockout: sgERN1, 10000 nM	122
sgRNA knockout: sgHSF1, 10 nM	116
sgRNA knockout: sgHSF1, 100 nM	96.6
sgRNA knockout: sgHSF1, 1000 nM	107.4
sgRNA knockout: sgHSF1, 10000 nM	122
sgRNA knockout: sgHSF2, 10 nM	105
sgRNA knockout: sgHSF2, 100 nM	114
sgRNA knockout: sgHSF2, 1000 nM	86
sgRNA knockout: sgHSF2, 10000 nM	102
sgRNA knockout: sgKEAP1, 10 nM	116
sgRNA knockout: sgKEAP1, 100 nM	110
sgRNA knockout: sgKEAP1, 1000 nM	116
sgRNA knockout: sgKEAP1, 10000 nM	104
sgRNA knockout: sgNFE2L2, 10 nM	102
sgRNA knockout: sgNFE2L2, 100 nM	114
sgRNA knockout: sgNFE2L2, 1000 nM	108
sgRNA knockout: sgNFE2L2, 10000 nM	105
sgRNA knockout: sgSLC35F2, 10 nM	105
sgRNA knockout: sgSLC35F2, 100 nM	115
sgRNA knockout: sgSLC35F2, 1000 nM	105.3
sgRNA knockout: sgSLC35F2, 10000 nM	120
sgRNA knockout: sgXBP1, 10 nM	106.45
sgRNA knockout: sgXBP1, 100 nM	113
sgRNA knockout: sgXBP1, 1000 nM	112
sgRNA knockout: sgXBP1, 10000 nM	115
